Measurements as given in publication PMC10202382.
Results are given in words; binding and its absence hold for the method and conditions named. Binding seen in cells or lysates may run through a third protein. Some binding calls cover weakened binding; strength is not graded here.

Chains of the proteins cited; added tags and fusions are not shown.
UniProt Q08460: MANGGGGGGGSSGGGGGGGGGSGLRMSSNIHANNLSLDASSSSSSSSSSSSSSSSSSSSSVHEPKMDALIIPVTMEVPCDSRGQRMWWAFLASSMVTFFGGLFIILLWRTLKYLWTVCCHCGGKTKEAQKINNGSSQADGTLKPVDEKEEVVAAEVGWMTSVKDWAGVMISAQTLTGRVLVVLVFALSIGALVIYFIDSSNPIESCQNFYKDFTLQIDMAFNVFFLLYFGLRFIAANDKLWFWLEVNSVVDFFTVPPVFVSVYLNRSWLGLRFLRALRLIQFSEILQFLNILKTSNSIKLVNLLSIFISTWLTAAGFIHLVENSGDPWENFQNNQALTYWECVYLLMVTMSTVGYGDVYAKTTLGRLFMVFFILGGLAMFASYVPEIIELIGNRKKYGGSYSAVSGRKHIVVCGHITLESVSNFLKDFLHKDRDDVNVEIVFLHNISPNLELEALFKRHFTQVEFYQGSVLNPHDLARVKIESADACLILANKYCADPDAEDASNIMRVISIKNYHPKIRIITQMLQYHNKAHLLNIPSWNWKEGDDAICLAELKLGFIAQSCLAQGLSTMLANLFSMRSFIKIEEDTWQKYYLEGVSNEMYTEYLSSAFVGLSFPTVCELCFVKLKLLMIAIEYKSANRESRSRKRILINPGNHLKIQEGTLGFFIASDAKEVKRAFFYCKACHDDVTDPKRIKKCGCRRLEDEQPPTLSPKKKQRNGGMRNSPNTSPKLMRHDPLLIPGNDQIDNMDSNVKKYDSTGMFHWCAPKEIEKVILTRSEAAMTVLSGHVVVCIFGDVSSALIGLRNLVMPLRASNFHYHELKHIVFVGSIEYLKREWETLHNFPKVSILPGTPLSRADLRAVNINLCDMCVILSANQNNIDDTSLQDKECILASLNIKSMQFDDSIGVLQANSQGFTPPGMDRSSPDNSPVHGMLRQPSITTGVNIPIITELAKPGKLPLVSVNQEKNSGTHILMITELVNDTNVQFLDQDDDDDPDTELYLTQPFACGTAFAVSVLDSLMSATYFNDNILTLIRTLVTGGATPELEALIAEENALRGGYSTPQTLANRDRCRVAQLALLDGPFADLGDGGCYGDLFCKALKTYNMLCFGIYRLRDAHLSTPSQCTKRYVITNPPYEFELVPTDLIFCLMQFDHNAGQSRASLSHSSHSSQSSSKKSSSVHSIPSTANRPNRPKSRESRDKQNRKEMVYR

Target: cyclin-dependent kinase 5 (CDK5), endogenous in mouse striatum (mouse (endogenous in striatum)) (UniProt P49615)
Test: co-IP; striatum lysate precipitated with an anti-CDK5 antibody (IgG as control), blot probed with an anti-BK channel antibody; endogenous proteins

In the case of “large-conductance Ca2+-activated K+ channel (BK channel), endogenous in mouse striatum (from UniProt Q08460 1-1209)”, the binding is reported as “binds”.
